Measurements as given in patent US20020150912A1, “Reporter system for cell surface receptor-ligand binding” (priority 2000, published 2002).
Some entries share one result that the patent states for a list of compounds.

System: pcFUSII reporter gene in S2 cells
Experiment: Reporter construct pcFUSII transiently transfected into S2 insect cells, drugs that influence calcium release
Type: cell-based
Settings: 500 nM, S2 cells transiently transfected with pcFUSII

Row | SMILES | activation of the reporter gene, fold increase
1 | CN[C@@H]1C[C@H]2O[C@@](C)([C@@H]1OC)n1c3ccccc3c3c4c(c5c6ccccc6n2c5c31)C(=O)NC4 [Staurosporine] | 5 - 10 fold
2 | C/C=C(/C)C(=O)O[C@H]1C(C)=C2[C@H]([C@@H]1OC(=O)CCCCCCC)[C@@](C)(OC(C)=O)C[C@H](OC(=O)CCC)[C@@]1(O)[C@H]2OC(=O)[C@@]1(C)O [Thapsigargin] | 5 - 10 fold
